Consider 37 compounds from patent US5260257A, “Thermal transfer sheet” (Dai Nippon Printing Co., Ltd., priority 1991, dated 1993).

Data set [1] can be described thus: surface appearance of sheet (naked eye). Particulars: Table D1.
Data set [2] can be described thus: reflection density of print (densitometer TR-310, X-Rite). Particulars: Table D1; 10.5 V, maximum pulse width 16 msec.
Data set [3] in a line: recording density (densitometer RD-918, Macbeth). Conditions: 10 V, 4.0 msec.
A short description of data set [4]: dye migration resistance of recorded image (70° C., 48 hr, sharpness and coloration of white paper). Set-up: key: .circleincircle.: no change in the sharpness was observed and rubbing of the surface with white paper gave rise to no coloration of the white paper; .largecircle.: the sharpness of the image was slightly lost and the white paper was slightly colored; Δ: the sharpness of the image was lost and the white paper was colored; X: the image became unclear and the white paper was remarkably colored.

The mark [5] stands for this setting: Table A3, Comparative Examples A1-A6.
Where [6] appears, read: Table B3, Comparative Examples B1-B6.
[7] abbreviates: Table C (C3), Comparative Examples C1-C6.

SMILES strings stand for the structures.

`CCN(CC)c1ccc(N=C2C=C(NC(C)=O)C(=O)C(Cl)=C2C)c(C)c1` [Comp. Ex. D1]: the “surface appearance of sheet” value in data set [1] is “rough surface”. Further, the Recording density in data set [2] amounted to 1.85.
Take `CCN(CC)c1ccc(N=C2C=C(NC(=O)C3CCCCC3)C(=O)C(Cl)=C2C)c(C)c1` [Comp. Ex. D2]: the “surface appearance of sheet” value in data set [1] is reported as “rough surface”. In data set [2], this compound came in with a Recording density of 2.07.
Compound `CCN(CC)c1ccc(N=C2C=CC(=O)C(NC(=O)C3CC4C=CC3C4)=C2)c(C)c1` (stereo not shown) [Dye No. 2 in Table C1] gave a Recording density in data set [3] (Table C2, dyes of Table C1) of 1.86. For the same compound, the Dye migration resistance entry in data set [4] (Table C2, dyes of Table C1) was “Δ”.
For the compound `CNc1ccc(N)c2c1C(=O)c1ccccc1C2=O` [Comp. Ex. A5, C.I. Disperse Violet 4, reference compound], the Recording density in data set [3] (setting [5]), in data set [3] (setting [6]) and in data set [3] (setting [7]) was 1.05 throughout. Also, the Dye migration resistance result in data set [4] (setting [5]), in data set [4] (setting [6]) and in data set [4] (setting [7]) was “X” throughout.
In the case of `CCOc1cc(N(CC)CCO)ccc1N=C1C=C(NC(=O)C2CC3C=CC2C3)C(=O)C=C1NC(C)=O` (stereo not shown) [Dye No. 10 in Table C1], in data set [3] (Table C2, dyes of Table C1), the Recording density was found to be 1.70. For the same compound, the Dye migration resistance result in data set [4] (Table C2, dyes of Table C1) was “.largecircle”.
Regarding `CCN(CC)c1ccc(N=C2C=C(NC(=O)c3ccsc3)C(=O)C=C2NC(C)=O)c(C)c1` [compound 21], the Recording density in data set [3] (Table A2, dyes of Table A1) was 1.76. In addition, the Dye migration resistance entry in data set [4] (Table A2, dyes of Table A1) is “.largecircle”.
Consider `CCN(CCO)c1ccc(N=C2C=C(NC(=O)C3CC4C=CC3C4)C(=O)C(Cl)=C2C)c(C)c1` (stereo not shown) [Dye No. 3 in Table C1], for which the Recording density in data set [3] (Table C2, dyes of Table C1) was found to be 1.77. The Dye migration resistance result in data set [4] (Table C2, dyes of Table C1) is recorded as “.largecircle”.
In the case of `CCN(c1ccccc1)c1ccc(N=C2C=C(NC(=O)C3=CCCC3)C(=O)C=C2NC(=O)NC)c(Cl)c1` [Dye No. 17 in Table B1], in data set [3] (Table B2, dyes of Table B1), the Recording density is given as 1.64. The Dye migration resistance result in data set [4] (Table B2, dyes of Table B1) is given as “.largecircle”.
For the compound `CCN(CC)c1ccc(N=C2C=C(NC(=O)C3=CCC=CC3)C(=O)C=C2NC(C)=O)c(C)c1` [Dye No. 20 in Table B1], the Recording density in data set [3] (Table B2, dyes of Table B1) is listed as 1.82. Besides, the Dye migration resistance entry in data set [4] (Table B2, dyes of Table B1) is listed as “.largecircle”.
`CCN(CC)c1ccc(N=C2C=C(NC(=O)C3=CCC=CC3)C(=O)C(Cl)=C2C)c(C)c1` [Dye No. 10 in Table B1] showed a Recording density in data set [3] (Table B2, dyes of Table B1) of 1.88. Besides, in data set [4] (Table B2, dyes of Table B1), the Dye migration resistance entry is recorded as “.largecircle”.
Turning to `CCN(CCO)c1ccc(N=C2C=C(NC(=O)C3=CCC=CC3)C(=O)C(Cl)=C2C)c(C)c1` [Dye No. 21 in Table B1], the Recording density in data set [3] (Table B2, dyes of Table B1) is recorded as 1.83. In addition, the Dye migration resistance entry in data set [4] (Table B2, dyes of Table B1) was “.largecircle”.
Compound `CCN(CC)c1ccc(N=C2C=C(NC(=O)C3CC4C=CC3C4)C(=O)C(Cl)=C2C)cc1` (stereo not shown) [Dye No. 6 in Table C1] gave a Recording density in data set [3] (Table C2, dyes of Table C1) of 1.82. The Dye migration resistance entry in data set [4] (Table C2, dyes of Table C1) was “.largecircle”.
In turn, `CCN(CC)c1ccc(N=C2C=C(NC(=O)C3=CC4C=CC3C4)C(=O)C(Cl)=C2C)c(C)c1` (stereo not shown) [Dye No. 11 in Table C1] showed a Recording density in data set [3] (Table C2, dyes of Table C1) of 1.75. Moreover, the Dye migration resistance result in data set [4] (Table C2, dyes of Table C1) was “.largecircle”.
For the compound `CCN(CC)c1ccc(N=C2C=CC(=O)C(NC(=O)C3C=CCC=C3)=C2)c(NC(C)=O)c1` [Dye No. 11 in Table B1], the Recording density in data set [3] (Table B2, dyes of Table B1) was 1.86. Further, in data set [4] (Table B2, dyes of Table B1), the Dye migration resistance entry is listed as “.largecircle”.
Regarding `CCN(c1ccccc1)c1ccc(N=C2C=C(NC(=O)C3=CC4C=CC3C4)C(=O)C=C2NC(=O)NC)c(Cl)c1` (stereo not shown) [Dye No. 15 in Table C1], the Recording density in data set [3] (Table C2, dyes of Table C1) came to 1.62. The Dye migration resistance result in data set [4] (Table C2, dyes of Table C1) is reported as “.largecircle”.
As for `CCN(CCNS(C)(=O)=O)c1ccc(N=C2C=C(NC(=O)C3CC=CCC3)C(=O)C(Cl)=C2C)c(C)c1` (stereo not shown) [compound 24], in data set [3] (Table B2, dyes of Table B1), the Recording density came out at 1.60. The Dye migration resistance result in data set [4] (Table B2, dyes of Table B1) is given as “.largecircle”.
Take `CCN(c1ccccc1)c1ccc(N=C2C=C(NC(=O)C3CC3)C(=O)C(Cl)=C2C)c(Cl)c1` [compound 8]: in data set [3] (Table A2, dyes of Table A1), the Recording density was determined as 1.85. Moreover, in data set [4] (Table A2, dyes of Table A1), the Dye migration resistance result is on record as “.largecircle”.
In the case of `CCN(CC)c1ccc(N=C2C=C(NC(=O)C3CC4C=CC3S4)C(=O)C=C2NC(C)=O)c(C)c1` (stereo not shown) [Dye No. 23 in Table C1], the Recording density in data set [3] (Table C2, dyes of Table C1) is 1.70. The Dye migration resistance entry in data set [4] (Table C2, dyes of Table C1) is reported as “.largecircle”.
`CCCCC1CC(C(=O)NC2=CC(=Nc3ccc(N(CC)CC)cc3C)C(C)=C(Cl)C2=O)C1` (stereo not shown) [compound 12] yielded a Recording density in data set [3] (Table A2, dyes of Table A1) of 1.83. Moreover, the Dye migration resistance entry in data set [4] (Table A2, dyes of Table A1) is given as “.largecircle”.
Taken in the same sequence, the figures for `CCN(CC)c1ccc(N=C2C=C(NC(=O)C3CCCC3)C(=O)C(Cl)=C2C)c(C)c1` [compound 15] were 1.82 and “.largecircle”.
Compound `CCN(CCCl)c1ccc(N=C2C=C(NC(=O)C3CC4C=CC3C4)C(=O)C(Cl)=C2C)c(NC(=O)NC)c1` (stereo not shown) [Dye No. 9 in Table C1] displayed a Recording density in data set [3] (Table C2, dyes of Table C1) of 1.66. Besides, the Dye migration resistance entry in data set [4] (Table C2, dyes of Table C1) is “.largecircle”.
On to `CCOc1cc(N(CC)CC)ccc1N=C1C=CC(=O)C(NC(=O)C2CC2)=C1` [compound 4], for which the Recording density in data set [3] (Table A2, dyes of Table A1) is given as 1.97. Moreover, the Dye migration resistance entry in data set [4] (Table A2, dyes of Table A1) is reported as “Δ”.
In the case of `CCN(CC)c1ccc(N=C2C=CC(=O)C(NC(=O)C3CC=CCC3)=C2)c(C)c1` (stereo not shown) [compound 23], the Recording density in data set [3] (Table B2, dyes of Table B1) amounted to 1.92. Further, the Dye migration resistance result in data set [4] (Table B2, dyes of Table B1) is “Δ”.
Taken in the same sequence, the figures for `CCOc1cc(N(CC)CC)ccc1N=C1C=C(NC(=O)C2CC=CCC2)C(=O)C(Cl)=C1C` (stereo not shown) [Dye No. 22 in Table B1] were 1.66 and “.largecircle”.
In data set [3] (Table B2, dyes of Table B1), `CCN(CC)c1ccc(N=C2C=C(NC(=O)C3=CCC=CC3)C(=O)C(Cl)=C2C)cc1` [Dye No. 18 in Table B1] showed a Recording density of 1.84. The Dye migration resistance entry in data set [4] (Table B2, dyes of Table B1) is on record as “.largecircle”.
`CCN(CC)c1ccc(N=C2C=C(NC(=O)C3CC4C=CC3S4)C(=O)C(Cl)=C2C)c(C)c1` (stereo not shown) [Dye No. 22 in Table C1]: in data set [3] (Table C2, dyes of Table C1), the Recording density amounted to 1.71. In addition, the Dye migration resistance result in data set [4] (Table C2, dyes of Table C1) is “.largecircle”.
On to `CCOc1cc(N(CC)CC)ccc1N=C1C=CC(=O)C(NC(=O)C2CC3C=CC2C3)=C1` (stereo not shown) [Dye No. 5 in Table C1], for which, in data set [3] (Table C2, dyes of Table C1), the Recording density turned out to be 1.80. For the same compound, the Dye migration resistance entry in data set [4] (Table C2, dyes of Table C1) is “.largecircle”.
In data set [3] (Table C2, dyes of Table C1), `CCN(CC)c1ccc(N=C2C=C(NC(=O)C3CC4C=CC3O4)C(=O)C(Cl)=C2C)c(C)c1` (stereo not shown) [Dye No. 21 in Table C1] displayed a Recording density of 1.79. In addition, the Dye migration resistance result in data set [4] (Table C2, dyes of Table C1) is recorded as “.largecircle”.
Regarding `CC(C)Nc1ccc(NC(C)C)c2c1C(=O)c1ccccc1C2=O` [Comp. Ex. A2, C.I. Disperse Blue 134, reference compound], the Recording density in data set [3] (setting [5]), in data set [3] (setting [6]) and in data set [3] (setting [7]) was 1.15 throughout. Moreover, the Dye migration resistance entry in data set [4] (setting [5]), in data set [4] (setting [6]) and in data set [4] (setting [7]) was “Δ” throughout.
`CCN(CCCl)c1ccc(N=C2C=C(NC(=O)C3CC=CCC3)C(=O)C(Cl)=C2C)c(NC(=O)NC)c1` (stereo not shown) [Dye No. 7 in Table B1] returned a Recording density in data set [3] (Table B2, dyes of Table B1) of 1.67. Besides, the Dye migration resistance entry in data set [4] (Table B2, dyes of Table B1) is “.largecircle”.
In the case of `CCN(CCC#N)c1ccc(N=C2C=C(NC(=O)C3CC3)C(=O)C=C2NS(C)(=O)=O)c(NC(C)=O)c1` [compound 7], the Recording density in data set [3] (Table A2, dyes of Table A1) is given as 1.79. Moreover, in data set [4] (Table A2, dyes of Table A1), the Dye migration resistance entry is “.largecircle”.
Take `CCN(CC)c1ccc(N=C2C=C(NC(=O)C3CC4C=CC3C4)C(=O)C(Cl)=C2C)c(NC(C)=O)c1` (stereo not shown) [Dye No. 8 in Table C1]: in data set [3] (Table C2, dyes of Table C1), the Recording density turned out to be 1.72. The Dye migration resistance entry in data set [4] (Table C2, dyes of Table C1) is listed as “.largecircle”.
On to `CCN(CC)c1ccc(N=C2C=C(NC(=O)C3CC4C=CC3N4C)C(=O)C(Cl)=C2C)c(C)c1` (stereo not shown) [Dye No. 24 in Table C1], for which the Recording density in data set [3] (Table C2, dyes of Table C1) is listed as 1.73. Further, the Dye migration resistance result in data set [4] (Table C2, dyes of Table C1) was “.largecircle”.
`CCOc1cc(N(CC)CC)ccc1N=C1C=CC(=O)C(NC(=O)C2C=CCCC2)=C1` (stereo not shown) [Dye No. 8 in Table B1]: the Recording density in data set [3] (Table B2, dyes of Table B1) was 1.77. Also, the Dye migration resistance entry in data set [4] (Table B2, dyes of Table B1) is reported as “.largecircle”.
In turn, `CCN(CC)c1ccc(N=C2C=CC(=O)C(NC(=O)C3=CC4C=CC3C4)=C2)c(NC(C)=O)c1` (stereo not shown) [Dye No. 12 in Table C1] registered a Recording density in data set [3] (Table C2, dyes of Table C1) of 1.74. For the same compound, the Dye migration resistance result in data set [4] (Table C2, dyes of Table C1) was “.largecircle”.
The compound `CCC1=C(Cl)C(=O)C(NC(=O)C2CC=CCC2)=CC1=Nc1ccc(N(CC)CC)cc1C` (stereo not shown) [Dye No. 5 in Table B1] showed a Recording density in data set [3] (Table B2, dyes of Table B1) of 1.84. Further, the Dye migration resistance result in data set [4] (Table B2, dyes of Table B1) is “.largecircle”.
Regarding `CCN(CC)c1ccc(N=C2C=C(NC(=O)c3ccsc3)C(=O)C(Cl)=C2C)c(NC(C)=O)c1` [compound 20], in data set [3] (Table A2, dyes of Table A1), the Recording density amounted to 1.72. For the same compound, the Dye migration resistance entry in data set [4] (Table A2, dyes of Table A1) is “.largecircle”.
